Results taken from patent publication US20070185089A1, “Benzazepine derivatives for the treatment of neurological and psychiatric disorders” (Glaxo Group Limited, priority 2004, published 2007).
Values joined by “and” are separate entries in the source; they are usually repeats but may differ in a detail not shown here. Identical values can stand only once. Some results were stated once for a whole list of compounds, not compound by compound.

The chains behind the UniProt entries cited, without tags or fusion partners. Where a name states a change or a piece, a line headed by the entry shows the natural chain unless it says otherwise.
UniProt Q9Y5N1: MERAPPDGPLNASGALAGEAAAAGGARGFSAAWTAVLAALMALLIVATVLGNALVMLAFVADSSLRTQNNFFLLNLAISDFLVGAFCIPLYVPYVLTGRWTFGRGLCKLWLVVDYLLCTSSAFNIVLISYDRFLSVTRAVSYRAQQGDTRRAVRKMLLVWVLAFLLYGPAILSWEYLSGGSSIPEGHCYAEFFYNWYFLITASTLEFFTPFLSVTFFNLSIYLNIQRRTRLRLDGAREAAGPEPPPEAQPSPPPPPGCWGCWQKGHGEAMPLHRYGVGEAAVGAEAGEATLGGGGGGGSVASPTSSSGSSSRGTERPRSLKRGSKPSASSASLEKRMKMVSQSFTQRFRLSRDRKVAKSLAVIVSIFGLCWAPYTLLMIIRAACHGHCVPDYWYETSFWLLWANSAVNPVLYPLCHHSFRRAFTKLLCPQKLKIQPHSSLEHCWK

Molecular target: T1, histamine H3 receptor (Homo sapiens, UniProt Q9Y5N1)
T1 construct: expressed in transfected cells; host or cells: CHO K1 cells carrying pSwitch, transfected with pGeneH3; mifepristone-induced; clone 3H3; membranes
Test: Histamine H3 functional antagonist assay (method A), [35S]-GTPγS SPA on membranes
Type: biochemical
Conditions: histamine at EC80

SMILES	antagonism in the histamine H3 functional antagonist assay (method A)
COc1ccc(CC(=O)N2CCN(c3ccc4c(c3)CCN(C3CCCC3)CC4)CC2)cc1 [Example E167, 3-Cyclopentyl-7-(4-{[4-(methyloxy)phenyl]acetyl}-1-piperazinyl)-2,3,4,5-tetrahydro-1H-3-benzazepine]	> 6.5 pKb
O=C(c1cncs1)N1CCN(c2ccc3c(c2)CCN(C2CCCC2)CC3)CC1 [Example E179, 3-Cyclopentyl-7-[4-(1,3-thiazol-5-ylcarbonyl)-1-piperazinyl]-2,3,4,5-tetrahydro-1H-3-benzazepine]	> 6.5 pKb
O=C(O)C(F)(F)F.O=C(c1cc2ccccc2s1)N1CCN(c2ccc3c(c2)CCN(C2CCCC2)CC3)CC1 [Example E106, 7-[4-(1-Benzothien-2-ylcarbonyl)-1-piperazinyl]-3-cyclopentyl-2,3,4,5-tetrahydro-1H-3-benzazepine trifluoroacetate salt]	> 6.5 pKb
O=C(Cc1ccc(-n2cccn2)cc1)N1CCN(c2ccc3c(c2)CCN(C2CCCC2)CC3)CC1.O=C(O)C(F)(F)F [Example E99, 3-Cyclopentyl-7-(4-{[4-(1H-pyrazol-1-yl)phenyl]acetyl}-1-piperazinyl)-2,3,4,5-tetrahydro-1H-3-benzazepine trifluoroacetate salt]	> 6.5 pKb
O=C(c1cscn1)N1CCN(c2ccc3c(c2)CCN(C2CCCC2)CC3)CC1 [Example E181, 3-Cyclopentyl-7-[4-(1,3-thiazol-4-ylcarbonyl)-1-piperazinyl]-2,3,4,5-tetrahydro-1H-3-benzazepine]	> 6.5 pKb
O=C(C1CCc2ccccc2O1)N1CCN(c2ccc3c(c2)CCN(C2CCCC2)CC3)CC1.O=C(O)C(F)(F)F (stereo not shown) [Example E145, 3-Cyclopentyl-7-[4-(3,4-dihydro-2H-chromen-2-ylcarbonyl)-1-piperazinyl]-2,3,4,5-tetrahydro-1H-3-benzazepine trifluoroacetate salt]	> 6.5 pKb
O=C(Cc1ccsc1)N1CCN(c2ccc3c(c2)CCN(C2CCCC2)CC3)CC1 [Example E168, 3-Cyclopentyl-7-[4-(3-thienylacetyl)-1-piperazinyl]-2,3,4,5-tetrahydro-1H-3-benzazepine]	> 6.5 pKb
Cc1nn(C)c2sc(C(=O)N3CCN(c4ccc5c(c4)CCN(C4CCCC4)CC5)CC3)cc12.O=C(O)C(F)(F)F [Example E153, 3-Cyclopentyl-7-{4-[(1,3-dimethyl-1H-thieno[2,3-c]pyrazol-5-yl)carbonyl]-1-piperazinyl}-2,3,4,5-tetrahydro-1H-3-benzazepine trifluoroacetate salt]	> 6.5 pKb
CC(C)(C)CC(=O)N1CCN(c2ccc3c(c2)CCN(C2CCCC2)CC3)CC1.O=C(O)C(F)(F)F [Example E133, 3-Cyclopentyl-7-[4-(3,3-dimethylbutanoyl)-1-piperazinyl]-2,3,4,5-tetrahydro-1H-3-benzazepine trifluoroacetate salt]	> 6.5 pKb
CNC(=O)c1cccc(-c2ccc3c(c2)CCN(C2CCC2)CC3)c1 [Example E200, 3-(3-Cyclobutyl-2,3,4,5-tetrahydro-1H-3-benzazepin-7-yl)-N-methylbenzamide]	> 6.5 pKb
CC(=O)Cc1ccc(-c2ccc3c(c2)CCN(C2CCC2)CC3)cc1 [Example E196, 1-[4-(3-Cyclobutyl-2,3,4,5-tetrahydro-1H-3-benzazepin-7-yl)phenyl]-2-propanone]	> 6.5 pKb
O=C(O)C(F)(F)F.O=C(c1csc2ccccc12)N1CCN(c2ccc3c(c2)CCN(C2CCCC2)CC3)CC1 [Example E151, 7-[4-(1-Benzothien-3-ylcarbonyl)-1-piperazinyl]-3-cyclopentyl-2,3,4,5-tetrahydro-1H-3-benzazepine trifluoroacetate salt]	> 6.5 pKb
O=C(O)C(F)(F)F.O=C(c1ccc2c(c1)CCCS2(=O)=O)N1CCN(c2ccc3c(c2)CCN(C2CCCC2)CC3)CC1 [Example E143, 3-Cyclopentyl-7-{4-[(1,1-dioxido-3,4-dihydro-2H-1-benzothiopyran-6-yl)carbonyl]-1-piperazinyl}-2,3,4,5-tetrahydro-1H-3-benzazepine trifluoroacetate salt]	> 6.5 pKb
O=C(Cc1ccncc1)N1CCN(c2ccc3c(c2)CCN(C2CCCC2)CC3)CC1.O=C(O)C(F)(F)F [Example E159, 3-Cyclopentyl-7-[4-(4-pyridinylacetyl)-1-piperazinyl]-2,3,4,5-tetrahydro-1H-3-benzazepine trifluoroacetate salt]	> 6.5 pKb
COc1cc(Cl)cc(C(=O)N2CCN(c3ccc4c(c3)CCN(C3CCCC3)CC4)CC2)c1.O=C(O)C(F)(F)F [Example E127, 7-(4-{[3-Chloro-5-(methyloxy)phenyl]carbonyl}-1-piperazinyl)-3-cyclopentyl-2,3,4,5-tetrahydro-1H-3-benzazepine trifluoroacetate salt]	> 6.5 pKb
O=C(O)C(F)(F)F.O=C(c1ccccc1)N1CCN(c2ccc3c(c2)CCN(C2CCCC2)CC3)CC1 [Example E109, 3-Cyclopentyl-7-[4-(phenylcarbonyl)-1-piperazinyl]-2,3,4,5-tetrahydro-1H-3-benzazepine trifluoroacetate salt]	> 6.5 pKb
CC(C)(C)O[C@H]1CC[C@@H](C(=O)N2CCN(c3ccc4c(c3)CCN(C3CCCC3)CC4)CC2)CC1.O=C(O)C(F)(F)F [Example E135, 3-Cyclopentyl-7-[4-({cis-4-[(1,1-dimethylethyl)oxy]cyclohexyl}carbonyl)-1-piperazinyl]-2,3,4,5-tetrahydro-1H-3-benzazepine trifluoroacetate salt]	> 6.5 pKb
Cc1noc(C)c1C(=O)N1CCN(c2ccc3c(c2)CCN(C2CCCC2)CC3)CC1 [Example E187, 3-Cyclopentyl-7-{4-[(3,5-dimethyl-4-isoxazolyl)carbonyl]-1-piperazinyl}-2,3,4,5-tetrahydro-1H-3-benzazepine]	> 6.5 pKb
O=C(Cc1ccccc1)N1CCN(c2ccc3c(c2)CCN(C2CCCC2)CC3)CC1 [Example E161, 3-Cyclopentyl-7-[4-(phenylacetyl)-1-piperazinyl]-2,3,4,5-tetrahydro-1H-3-benzazepine]	> 9.0 pKb and > 6.5 pKb
CC(C)c1ccc(C(=O)N2CCN(c3ccc4c(c3)CCN(C3CCCC3)CC4)CC2)cc1.O=C(O)C(F)(F)F [Example E112, 3-Cyclopentyl-7-(4-{[4-(1-methylethyl)phenyl]carbonyl}-1-piperazinyl)-2,3,4,5-tetrahydro-1H-3-benzazepine trifluoroacetate salt]	> 6.5 pKb
O=C(CN1CCCCC1=O)N1CCN(c2ccc3c(c2)CCN(C2CCCC2)CC3)CC1.O=C(O)C(F)(F)F [Example E137, 1-{2-[4-(3-Cyclopentyl-2,3,4,5-tetrahydro-1H-3-benzazepin-7-yl)-1-piperazinyl]-2-oxoethyl}-2-piperidinone trifluoroacetate salt]	> 6.5 pKb
O=C(Cc1ccc(Cl)cc1)N1CCN(c2ccc3c(c2)CCN(C2CCCC2)CC3)CC1 [Example E166, 7-{4-[(4-Chlorophenyl)acetyl]-1-piperazinyl}-3-cyclopentyl-2,3,4,5-tetrahydro-1H-3-benzazepine]	> 9.0 pKb and > 6.5 pKb
Cc1nc(-c2ccccc2)sc1CC(=O)N1CCN(c2ccc3c(c2)CCN(C2CCCC2)CC3)CC1.O=C(O)C(F)(F)F [Example E154, 3-Cyclopentyl-7-{4-[(4-methyl-2-phenyl-1,3-thiazol-5-yl)acetyl]-1-piperazinyl}-2,3,4,5-tetrahydro-1H-3-benzazepine trifluoroacetate salt]	> 6.5 pKb
O=C(C(c1ccccc1)c1ccccc1)N1CCN(c2ccc3c(c2)CCN(C2CCCC2)CC3)CC1 [Example E164, 3-Cyclopentyl-7-[4-(diphenylacetyl)-1-piperazinyl]-2,3,4,5-tetrahydro-1H-3-benzazepine]	> 6.5 pKb
Cn1ccnc1C(=O)N1CCN(c2ccc3c(c2)CCN(C2CCCC2)CC3)CC1 [Example E190, 3-Cyclopentyl-7-{4-[(1-methyl-1H-imidazol-2-yl)carbonyl]-1-piperazinyl}-2,3,4,5-tetrahydro-1H-3-benzazepine]	> 6.5 pKb

Same assay, conditions: histamine at EC80, trifluoroacetate salt

SMILES	antagonism in the histamine H3 functional antagonist assay (method A)
O=C(Cc1ccc2c(c1)OCO2)N1CCN(c2ccc3c(c2)CCN(C2CCCC2)CC3)CC1.O=C(O)C(F)(F)F [Example E128, 7-[4-(1,3-Benzodioxol-5-ylacetyl)-1-piperazinyl]-3-cyclopentyl-2,3,4,5-tetrahydro-1H-3-benzazepine trifluoroacetate salt]	> 9.0 pKb and > 6.5 pKb
Cc1coc(-c2ccccc2)c1C(=O)N1CCN(c2ccc3c(c2)CCN(C2CCCC2)CC3)CC1.O=C(O)C(F)(F)F [Example E100, 3-Cyclopentyl-7-{4-[(4-methyl-2-phenyl-3-furanyl)carbonyl]-1-piperazinyl}-2,3,4,5-tetrahydro-1H-3-benzazepine trifluoroacetate salt]	> 9.0 pKb and > 6.5 pKb
O=C(C1Cc2ccccc2C1)N1CCN(c2ccc3c(c2)CCN(C2CCCC2)CC3)CC1.O=C(O)C(F)(F)F [Example E141, 3-Cyclopentyl-7-[4-(2,3-dihydro-1H-inden-2-ylcarbonyl)-1-piperazinyl]-2,3,4,5-tetrahydro-1H-3-benzazepine trifluoroacetate salt]	> 9.0 pKb and > 6.5 pKb
